No constants are given. Whether binding was seen depends on the method and setting. In cells and extracts the contact can be indirect. Some results given as binding are weak or reduced against the parent protein; the word gives no strength.
Key:
[1] = molecular target: Flag-tagged Gata3 wild type (UniProt P23772); assay: co-IP; total lysates of 293T cells expressing Flag-tagged Gata3 with myr-Akt1 or dn Akt1 were mixed with lysates of Myc-tagged Hdac2-expressing 293T cells; Hdac2 associated with Flag-Gata3 assessed by IP and IB
[2] = molecular target: Flag-tagged Gata3 wild type (UniProt P23772); assay: co-IP; two-step affinity purification: total lysates of 293T cells expressing Flag-tagged Gata3 and Myc-tagged Hdac2, first IP with anti-Flag mAb, second IP with anti-Myc mAb; IB with anti-phospho-Gata3 Ab or anti-Flag mAb
[3] = molecular target: Flag-tagged Gata3 wild type (UniProt P23772); assay: co-IP; 293T cells co-transfected with Flag-tagged Gata3 (WT or mutant) and the Myc- or HA-tagged partner; RIPA lysates; IP with anti-Flag mAb, IB with anti-Myc or anti-HA
[4] = molecular target: Flag-tagged Gata3 S/T-3D (phospho-mimic mutant) (UniProt P23772); assay: as above
[5] = molecular target: Flag-tagged Gata3 S/T-3A (phospho-impaired mutant) (UniProt P23772); assay: as above

Protein sequences, listed by entry. Tags and fused reporters are not part of them. Lines headed by an entry give the natural chain unless they say otherwise; changes in a name come on top. Chains listed by the source or under a name are the forms on record and can include a tag or linker.
UniProt P23772: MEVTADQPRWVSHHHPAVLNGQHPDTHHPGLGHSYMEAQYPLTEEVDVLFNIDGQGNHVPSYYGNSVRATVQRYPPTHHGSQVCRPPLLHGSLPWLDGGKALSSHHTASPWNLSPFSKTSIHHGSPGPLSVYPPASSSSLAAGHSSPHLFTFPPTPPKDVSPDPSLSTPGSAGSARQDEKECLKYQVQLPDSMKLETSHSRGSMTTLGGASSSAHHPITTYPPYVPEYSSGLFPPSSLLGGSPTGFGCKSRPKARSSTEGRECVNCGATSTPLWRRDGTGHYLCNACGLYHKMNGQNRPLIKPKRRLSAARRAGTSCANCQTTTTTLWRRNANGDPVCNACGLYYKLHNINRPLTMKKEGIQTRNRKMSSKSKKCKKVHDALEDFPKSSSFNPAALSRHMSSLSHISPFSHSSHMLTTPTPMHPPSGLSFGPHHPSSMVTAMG
Flag-tagged Gata3 S/T-3D (phospho-mimic mutant) (P23772, form named): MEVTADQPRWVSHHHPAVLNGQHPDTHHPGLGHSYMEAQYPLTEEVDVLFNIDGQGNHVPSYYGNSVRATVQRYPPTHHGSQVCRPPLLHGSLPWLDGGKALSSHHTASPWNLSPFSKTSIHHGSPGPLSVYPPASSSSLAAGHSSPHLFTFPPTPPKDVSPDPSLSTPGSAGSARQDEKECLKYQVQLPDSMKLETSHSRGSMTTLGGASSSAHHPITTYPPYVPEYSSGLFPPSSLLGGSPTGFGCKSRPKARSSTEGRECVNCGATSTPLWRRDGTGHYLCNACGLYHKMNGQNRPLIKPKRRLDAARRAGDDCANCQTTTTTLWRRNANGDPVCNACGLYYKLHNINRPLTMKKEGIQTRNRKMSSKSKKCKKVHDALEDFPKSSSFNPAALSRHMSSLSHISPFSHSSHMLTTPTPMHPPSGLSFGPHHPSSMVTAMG
Flag-tagged Gata3 S/T-3A (phospho-impaired mutant) (P23772, form named): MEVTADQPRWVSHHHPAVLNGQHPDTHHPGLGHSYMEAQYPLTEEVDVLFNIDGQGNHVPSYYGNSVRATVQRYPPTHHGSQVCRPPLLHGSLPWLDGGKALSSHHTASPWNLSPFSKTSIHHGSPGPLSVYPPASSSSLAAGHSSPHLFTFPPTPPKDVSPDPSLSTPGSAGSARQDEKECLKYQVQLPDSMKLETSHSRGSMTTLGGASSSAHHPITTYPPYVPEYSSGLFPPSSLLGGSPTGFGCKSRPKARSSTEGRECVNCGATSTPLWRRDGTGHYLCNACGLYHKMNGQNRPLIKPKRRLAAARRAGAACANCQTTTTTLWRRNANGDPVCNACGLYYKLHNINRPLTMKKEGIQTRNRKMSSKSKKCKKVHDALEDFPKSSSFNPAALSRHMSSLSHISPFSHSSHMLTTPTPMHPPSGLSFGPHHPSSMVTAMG
UniProt P70288: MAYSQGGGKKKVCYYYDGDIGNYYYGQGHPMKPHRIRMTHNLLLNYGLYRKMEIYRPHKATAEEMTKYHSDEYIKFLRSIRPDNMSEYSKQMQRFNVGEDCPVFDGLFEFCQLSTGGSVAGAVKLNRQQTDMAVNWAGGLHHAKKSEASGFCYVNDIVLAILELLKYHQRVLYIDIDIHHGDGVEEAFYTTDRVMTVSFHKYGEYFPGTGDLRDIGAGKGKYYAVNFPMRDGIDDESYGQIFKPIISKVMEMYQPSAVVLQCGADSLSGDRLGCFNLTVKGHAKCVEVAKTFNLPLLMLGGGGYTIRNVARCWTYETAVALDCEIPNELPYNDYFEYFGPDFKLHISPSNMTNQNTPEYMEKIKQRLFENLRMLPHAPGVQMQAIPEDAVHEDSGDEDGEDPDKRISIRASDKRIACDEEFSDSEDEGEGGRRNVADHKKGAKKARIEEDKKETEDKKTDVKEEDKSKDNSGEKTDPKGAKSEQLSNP
UniProt Q6PDQ2: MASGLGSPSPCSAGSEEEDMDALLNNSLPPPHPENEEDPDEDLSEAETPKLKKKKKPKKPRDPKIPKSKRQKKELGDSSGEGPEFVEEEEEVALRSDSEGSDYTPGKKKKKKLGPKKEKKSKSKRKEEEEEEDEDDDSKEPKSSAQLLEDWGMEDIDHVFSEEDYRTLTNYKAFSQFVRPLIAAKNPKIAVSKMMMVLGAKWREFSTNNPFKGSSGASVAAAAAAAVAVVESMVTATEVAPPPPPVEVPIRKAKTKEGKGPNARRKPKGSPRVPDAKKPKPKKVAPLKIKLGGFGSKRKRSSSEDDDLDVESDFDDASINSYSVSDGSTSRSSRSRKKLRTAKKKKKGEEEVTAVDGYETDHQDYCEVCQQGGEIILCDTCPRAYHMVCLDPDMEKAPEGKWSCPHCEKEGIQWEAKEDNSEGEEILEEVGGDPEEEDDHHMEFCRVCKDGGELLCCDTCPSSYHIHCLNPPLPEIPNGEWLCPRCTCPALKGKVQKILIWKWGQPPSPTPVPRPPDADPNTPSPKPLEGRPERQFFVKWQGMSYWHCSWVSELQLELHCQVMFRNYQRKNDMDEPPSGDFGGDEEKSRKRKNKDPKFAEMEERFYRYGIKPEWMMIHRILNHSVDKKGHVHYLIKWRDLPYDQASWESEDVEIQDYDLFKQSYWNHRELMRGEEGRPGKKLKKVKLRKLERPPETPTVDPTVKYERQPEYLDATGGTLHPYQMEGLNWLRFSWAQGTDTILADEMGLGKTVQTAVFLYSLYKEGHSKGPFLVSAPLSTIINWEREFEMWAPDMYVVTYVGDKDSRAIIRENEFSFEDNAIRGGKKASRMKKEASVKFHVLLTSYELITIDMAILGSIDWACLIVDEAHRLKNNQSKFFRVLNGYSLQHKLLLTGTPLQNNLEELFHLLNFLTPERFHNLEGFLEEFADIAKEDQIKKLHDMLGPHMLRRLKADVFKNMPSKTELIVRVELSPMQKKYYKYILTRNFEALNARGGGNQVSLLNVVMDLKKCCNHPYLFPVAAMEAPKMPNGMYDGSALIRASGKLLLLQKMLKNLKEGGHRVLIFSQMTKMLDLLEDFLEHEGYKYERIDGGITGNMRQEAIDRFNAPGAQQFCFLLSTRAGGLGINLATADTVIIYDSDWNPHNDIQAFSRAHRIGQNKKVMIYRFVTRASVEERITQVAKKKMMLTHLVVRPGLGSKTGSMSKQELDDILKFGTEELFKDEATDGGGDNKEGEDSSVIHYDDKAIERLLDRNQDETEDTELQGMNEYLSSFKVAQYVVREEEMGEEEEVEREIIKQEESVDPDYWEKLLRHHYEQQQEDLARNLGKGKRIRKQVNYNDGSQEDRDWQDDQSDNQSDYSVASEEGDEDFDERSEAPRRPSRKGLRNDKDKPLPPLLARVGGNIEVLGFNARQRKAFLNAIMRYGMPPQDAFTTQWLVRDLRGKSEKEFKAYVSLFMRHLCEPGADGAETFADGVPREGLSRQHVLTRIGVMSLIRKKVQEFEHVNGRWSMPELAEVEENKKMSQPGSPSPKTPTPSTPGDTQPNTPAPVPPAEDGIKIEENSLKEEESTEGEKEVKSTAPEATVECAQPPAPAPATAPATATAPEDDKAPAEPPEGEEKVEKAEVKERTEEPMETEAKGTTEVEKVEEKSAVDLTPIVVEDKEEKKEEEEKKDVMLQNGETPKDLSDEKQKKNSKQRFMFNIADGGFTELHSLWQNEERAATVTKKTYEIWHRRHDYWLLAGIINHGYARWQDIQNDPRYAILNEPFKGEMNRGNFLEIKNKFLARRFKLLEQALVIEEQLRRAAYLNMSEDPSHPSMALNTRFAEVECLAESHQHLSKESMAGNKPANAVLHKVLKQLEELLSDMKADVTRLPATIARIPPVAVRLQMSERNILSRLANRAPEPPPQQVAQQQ
UniProt Q09472: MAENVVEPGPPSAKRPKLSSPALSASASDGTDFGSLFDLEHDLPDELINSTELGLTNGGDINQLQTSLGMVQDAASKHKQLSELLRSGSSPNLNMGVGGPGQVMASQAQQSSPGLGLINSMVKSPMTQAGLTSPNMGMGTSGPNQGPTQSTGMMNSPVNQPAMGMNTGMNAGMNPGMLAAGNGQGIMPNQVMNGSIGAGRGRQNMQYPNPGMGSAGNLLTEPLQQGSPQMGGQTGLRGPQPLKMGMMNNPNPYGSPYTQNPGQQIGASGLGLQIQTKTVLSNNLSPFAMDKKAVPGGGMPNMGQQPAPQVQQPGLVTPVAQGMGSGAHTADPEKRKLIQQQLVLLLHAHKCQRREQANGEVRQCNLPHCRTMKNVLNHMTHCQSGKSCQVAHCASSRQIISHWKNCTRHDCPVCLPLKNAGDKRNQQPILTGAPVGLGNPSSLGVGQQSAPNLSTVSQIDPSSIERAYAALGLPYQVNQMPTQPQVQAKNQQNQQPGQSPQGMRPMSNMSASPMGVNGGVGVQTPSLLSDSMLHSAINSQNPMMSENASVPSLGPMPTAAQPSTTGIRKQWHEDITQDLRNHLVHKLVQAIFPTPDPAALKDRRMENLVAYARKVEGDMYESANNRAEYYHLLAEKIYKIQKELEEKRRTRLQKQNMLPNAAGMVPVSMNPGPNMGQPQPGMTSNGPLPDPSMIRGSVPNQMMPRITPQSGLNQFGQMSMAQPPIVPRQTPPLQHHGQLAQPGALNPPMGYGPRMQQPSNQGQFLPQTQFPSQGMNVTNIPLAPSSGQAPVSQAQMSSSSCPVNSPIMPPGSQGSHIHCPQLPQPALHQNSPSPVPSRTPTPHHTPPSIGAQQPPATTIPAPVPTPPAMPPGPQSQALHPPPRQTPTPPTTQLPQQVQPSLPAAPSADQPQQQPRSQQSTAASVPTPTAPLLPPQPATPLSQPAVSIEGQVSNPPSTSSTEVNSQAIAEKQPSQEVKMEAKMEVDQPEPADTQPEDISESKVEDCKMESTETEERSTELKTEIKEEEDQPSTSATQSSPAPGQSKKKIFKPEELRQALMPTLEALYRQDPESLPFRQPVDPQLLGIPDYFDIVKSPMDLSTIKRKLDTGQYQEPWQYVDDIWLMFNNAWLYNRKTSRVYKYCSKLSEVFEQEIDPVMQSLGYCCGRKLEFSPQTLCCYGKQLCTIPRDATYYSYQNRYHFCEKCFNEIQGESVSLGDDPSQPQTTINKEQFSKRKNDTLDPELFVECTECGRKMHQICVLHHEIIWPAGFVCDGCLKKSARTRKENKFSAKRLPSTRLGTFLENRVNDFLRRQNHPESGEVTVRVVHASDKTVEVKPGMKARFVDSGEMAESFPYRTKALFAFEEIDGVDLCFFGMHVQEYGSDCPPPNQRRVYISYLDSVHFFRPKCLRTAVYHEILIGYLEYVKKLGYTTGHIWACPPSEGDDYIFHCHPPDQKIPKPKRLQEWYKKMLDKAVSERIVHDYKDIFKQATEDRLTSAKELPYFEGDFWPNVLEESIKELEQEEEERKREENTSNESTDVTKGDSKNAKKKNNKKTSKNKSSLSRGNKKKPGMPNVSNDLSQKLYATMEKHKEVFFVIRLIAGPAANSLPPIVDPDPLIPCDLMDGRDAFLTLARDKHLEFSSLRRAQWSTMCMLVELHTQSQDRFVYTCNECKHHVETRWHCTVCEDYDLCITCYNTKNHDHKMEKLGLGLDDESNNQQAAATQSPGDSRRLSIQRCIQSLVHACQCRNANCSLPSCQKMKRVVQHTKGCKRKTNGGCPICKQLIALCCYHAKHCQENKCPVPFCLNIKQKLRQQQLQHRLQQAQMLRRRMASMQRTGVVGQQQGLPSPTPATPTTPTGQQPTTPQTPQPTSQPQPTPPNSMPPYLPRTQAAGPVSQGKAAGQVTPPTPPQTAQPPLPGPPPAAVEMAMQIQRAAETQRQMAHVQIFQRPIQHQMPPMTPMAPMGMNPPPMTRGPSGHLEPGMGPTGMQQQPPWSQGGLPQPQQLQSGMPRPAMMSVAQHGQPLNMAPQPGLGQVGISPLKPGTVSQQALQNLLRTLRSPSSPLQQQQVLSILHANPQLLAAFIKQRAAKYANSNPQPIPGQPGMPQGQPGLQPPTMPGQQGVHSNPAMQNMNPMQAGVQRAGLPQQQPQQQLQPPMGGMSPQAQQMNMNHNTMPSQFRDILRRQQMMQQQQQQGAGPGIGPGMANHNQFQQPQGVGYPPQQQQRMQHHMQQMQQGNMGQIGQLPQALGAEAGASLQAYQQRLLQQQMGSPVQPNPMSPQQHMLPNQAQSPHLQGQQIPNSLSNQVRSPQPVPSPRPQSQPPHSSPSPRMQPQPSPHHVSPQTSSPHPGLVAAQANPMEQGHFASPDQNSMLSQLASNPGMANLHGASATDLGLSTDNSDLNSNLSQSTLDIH

| binding [1] | binding [2] | binding [3] | binding [4] | binding [5] | Substance |
| --- | --- | --- | --- | --- | --- |
| binds | binds | binds | – | – | Myc-tagged Hdac2 (histone deacetylase 2) (from UniProt P70288 1-488) |
| – | – | binds | binds | binds | Myc-tagged Chd4 (from UniProt Q6PDQ2 1-1915) |
| – | – | binds | binds | binds | HA-tagged p300 (from UniProt Q09472 1-2414) |

From article PMC4829694
